From PMC7145394, “Molecular and Low-Resolution Structural Characterization of the Na^+-Translocating Glutaconyl-CoA Decarboxylase From Clostridium symbiosum” (Frontiers in Microbiology, 2020)
No constants are given. Whether binding was seen depends on the method and setting. Some results given as binding are weak or reduced against the parent protein; the word gives no strength.

Columns and labels:
[1] = target: T1, GcdC1, biotin carrier subunit of glutaconyl-CoA decarboxylase (Gcd) from Clostridium symbiosum (Clostridium symbiosum (endogenous in C. symbiosum DSM 934)) (UniProt B7TVP4); test: native MS; LILBID-MS, soft detection mode (14 mJ laser power); 3-7 uM glutaraldehyde-fixed and unconcentrated Gcd complex in 50 mM Tris-HCl pH 7.0, 0.05% DDM, 200 mM NaCl; both purified
T1 sequence (chain, biotin covalently bound (C-terminal region)): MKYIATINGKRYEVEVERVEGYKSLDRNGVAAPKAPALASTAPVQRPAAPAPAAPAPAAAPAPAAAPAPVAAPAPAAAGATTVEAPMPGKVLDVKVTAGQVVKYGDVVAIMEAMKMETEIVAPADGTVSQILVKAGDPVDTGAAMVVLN

[2] = target: T2, GcdC2, biotin carrier subunit of glutaconyl-CoA decarboxylase (Gcd) from Clostridium symbiosum (Clostridium symbiosum (endogenous in C. symbiosum DSM 934)) (UniProt B7TVP3); test: as above
T2 sequence (chain, biotin covalently bound (C-terminal region)): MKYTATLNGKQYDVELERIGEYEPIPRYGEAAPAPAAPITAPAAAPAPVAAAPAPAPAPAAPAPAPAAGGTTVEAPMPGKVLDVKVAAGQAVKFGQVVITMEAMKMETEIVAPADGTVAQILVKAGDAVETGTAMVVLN

B1: GcdB, subunit of glutaconyl-CoA decarboxylase (Gcd) from Clostridium symbiosum (enzyme, UniProt B7TVP5 1-379, looked up)
chain: MNFFEIMGEMLAQSGFTALTWKNLVMFAISFVLLYMAIKKQYEPLLLLPIAFGMFLANLPLADLMKESEPWYTQGVLRIMYGGVKSSLFPCLIFLCVGAMTDFGPLIANPISLLLGAAAQFGIYIAFMLANATGLFTVGEAAAIGIIGGADGPTAIYIANNLAPDLVAPIAVAAYSYMALIPMIQPPIMKLLTTKKERAIVMKQLRKVSKVEKVVFPVFVVLFCSLLLPSVAPLLGMLMLGNLFRESGVVERLSDTAQNALCNIVTIMLGTTVGATANGDIFLRVQTIAIIAMGLMAFCFSTVGGVLLGKLLCVVTGGKINPLIGSAGVSAVPMAARVSQTVGSKENPTNFLLMHAMGPNVAGVIGSAVAAGFFMLIFK
notes: GcdB, membrane-spanning subunit (11 putative transmembrane helices) of glutaconyl-CoA decarboxylase, Clostridium symbiosum, 35 kDa (39 kDa in the introduction)
[1]
  binding: binds
[2]
  binding: binds
